Measured values published in PubChem BioAssay AID248 (DTP/NCI, 2004).
The list does not hold the whole screen: it is rich in T/C values a quarter to a half above the control, in often repeated tests (any T/C) and in doses without a T/C. Other doses and runs of a compound stand elsewhere. T/C: endpoint of the treated group in % of that of the vehicle group. Some doses have a count of surviving animals in place of a T/C: the source files T/C as zero there, which appears to mark a toxic dose or a test without result, not a measured value. Some doses without a T/C left all or most animals alive at the check, yet need not have been tolerated: the source hardly ever lists a survival T/C far under the control, and the zero likely stands for such cases as well. Counts of survivors are from the toxicity check (mostly the fifth day) where no day follows; animals may have died later. Schedule codes are those of the source, taken here to give the interval after Q, in days (D) or hours (H), and the number of doses after X. Some schedule codes hold Z or #, which are not explained here. Where survival is the endpoint, this PubChem deposit counts one and a half times the control or more as active, and values a quarter to a half above the control carry no call in these data; other NCI protocols may use other cut-offs. Some T/C values are followed by the survivors on the day toxicity was checked, most often the fifth; without a count, all were alive then. Some entries were tested several times; the values are given in rising order. Brackets with × say how often a value occurs here.

Tested on: L1210 leukemia ip in BDF1 mice, survival T/C
Assay: NCI In Vivo Anticancer Drug Screen. Data for tumor model L1210 Leukemia (intraperitoneal) in B6D2F1 (BDF1) mice
Conditions: T/C endpoint: mean survival time, higher T/C = longer survival
[1] = dose: 400.0 mg/kg/injection, schedule: Q01DX001 (ip), vehicle: saline
[2] = dose: 200.0 mg/kg/injection, schedule: Q01DX009 (ip), vehicle: Klucel (hydroxypropylcellulose) (HPC)
[3] = dose: 400.0 mg/kg/injection, schedule: Q01DX009 (ip), vehicle: Klucel (hydroxypropylcellulose) (HPC)
[4] = dose: 400.0 mg/kg/injection, schedule: Q01DX001 (ip), vehicle: acetone
[5] = dose: 400.0 mg/kg/injection, schedule: Q04DX003 (ip), vehicle: Klucel (hydroxypropylcellulose) (HPC)
[6] = dose: 300.0 mg/kg/injection, schedule: Q01DX001 (ip), vehicle: saline
[7] = dose: 100.0 mg/kg/injection, schedule: Q04DX003 (ip), vehicle: saline with Tween-80
[8] = dose: 200.0 mg/kg/injection, schedule: Q04DX003 (ip), vehicle: saline with Tween-80
[9] = dose: 400.0 mg/kg/injection, schedule: Q04DX003 (ip), vehicle: saline with Tween-80
[10] = dose: 100.0 mg/kg/injection, schedule: Q01DX009 (ip), vehicle: saline
[11] = dose: 200.0 mg/kg/injection, schedule: Q01DX001 (ip), vehicle: saline with Tween-80
[12] = dose: 400.0 mg/kg/injection, schedule: Q01DX001 (ip), vehicle: saline with Tween-80

With `CCOC(=O)CCC1(CN2c3ccccc3Sc3ccccc32)CCN(C)C1` (centres undefined) the survivor count (dose: 150.0 mg/kg/injection, schedule: Q04DX003 (ip), vehicle: saline) was 4 of 6, the survivor count (dose: 200.0 mg/kg/injection, schedule: Q01DX001 (ip), vehicle: saline) was 1 of 6 and the survivor count (dose: 225.0 mg/kg/injection, schedule: Q04DX003 (ip), vehicle: saline) was 3 of 6. For the same compound, the survivor count (dose: 335.0 mg/kg/injection, schedule: Q04DX003 (ip), vehicle: saline) was 0 of 6 and the survivor count [1] was 0 of 6.
In the case of `C[NH-].C[NH-].C[NH-].C[NH-].[Cl][Rh][Cl]`, the survivor count [2] is reported as 5 of 6 and the survivor count [3] is reported as 0 of 6.
For `C=CCn1c(-c2cccs2)nc2c(Cl)ncnc21`, the survivor count (dose: 65.0 mg/kg/injection, schedule: Q01DX009 (ip), vehicle: steroid suspending solution) was 0 of 6, the survivor count (dose: 108.0 mg/kg/injection, schedule: Q01DX009 (ip), vehicle: steroid suspending solution) was 0 of 6 and the survivor count (dose: 400.0 mg/kg/injection, schedule: Q01DX001 (ip), vehicle: steroid suspending solution) was 0 of 6. The survivor count (dose: 800.0 mg/kg/injection, schedule: Q01DX001 (ip), vehicle: steroid suspending solution) was 0 of 6.
In the case of `O=C(CCC(C(=O)c1ccccc1)c1ccccc1)c1ccc(-c2ccccc2)cc1` (centres undefined), the survivor count (dose: 175.0 mg/kg/injection, schedule: Q01DX009 (ip), vehicle: Klucel (hydroxypropylcellulose) (HPC)) is reported as 6 of 6 and the survivor count (dose: 350.0 mg/kg/injection, schedule: Q01DX009 (ip), vehicle: Klucel (hydroxypropylcellulose) (HPC)) is reported as 5 of 6.
In the case of `CC(C)C(C(=O)O)N(C)N=O` (centres undefined), the survivor count [4] is reported as 2 of 6.
For `C1=CC2CC1C1CSCC21` (centres undefined), the survivor count (dose: 1.56 mg/kg/injection, schedule: Q01DX009 (ip), vehicle: saline) was 6 of 6, the survivor count (dose: 3.12 mg/kg/injection, schedule: Q01DX009 (ip), vehicle: saline) was 6 of 6 and the survivor count (dose: 6.25 mg/kg/injection, schedule: Q04DX003 (ip), vehicle: saline) was 1 of 6. The survivor count (dose: 12.5 mg/kg/injection, schedule: Q04DX003 (ip), vehicle: saline) was 0 of 6, the survivor count (dose: 25.0 mg/kg/injection, schedule: Q04DX003 (ip), vehicle: saline) was 1 of 6 and the survivor count (dose: 50.0 mg/kg/injection, schedule: Q04DX003 (ip), vehicle: saline) was 1 of 6. For the same compound, the survivor count (dose: 100.0 mg/kg/injection, schedule: Q04DX003 (ip), vehicle: saline) was 0 of 6, the survivor count (dose: 200.0 mg/kg/injection, schedule: Q04DX003 (ip), vehicle: saline) was 6 of 6 and the survivor count (dose: 400.0 mg/kg/injection, schedule: Q04DX003 (ip), vehicle: saline) was 6 of 6.
In the case of `CCN(CC)CCCC#CCN1CCCC1`, the survivor count [2] is reported as 4 of 6 and the survivor count [5] is reported as 0 of 6.
For `CCC(CO)NC1CCCCC1` (centres undefined), the survivor count (dose: 150.0 mg/kg/injection, schedule: Q01DX001 (ip), vehicle: carboxymethylcellulose (CMC)) was 0 of 6 and the survivor count (dose: 300.0 mg/kg/injection, schedule: Q01DX001 (ip), vehicle: carboxymethylcellulose (CMC)) was 0 of 6.
For `Cc1sc2ccc3ccccc3c2[n+]1C`, the survivor count (dose: 200.0 mg/kg/injection, schedule: Q04DX003 (ip), vehicle: Klucel (hydroxypropylcellulose) (HPC)) was 1 of 6 and the survivor count [6] was 1 of 6.
`O=c1[nH]c2ccccc2nc1CBr` was tested, and the survivor count [7] was 0 of 6, the survivor count [8] was 0 of 6 and the survivor count [9] was 0 of 6.
In the case of `OCC1OC(n2cnc3c(SCc4ccccc4)nc(NO)nc32)C(O)C1O` (centres undefined), the T/C (dose: 264.0 mg/kg/injection, schedule: Q01DX001 (ip), vehicle: saline with Tween-80) is reported as 135 % of control, the T/C (dose: 400.0 mg/kg/injection, schedule: Q01DX001 (ip), vehicle: saline with Tween-80, evaluated on day 20) is reported as 139 % of control and the T/C (dose: 400.0 mg/kg/injection, schedule: Q01DX001 (ip), vehicle: saline with Tween-80, evaluated on day 30) is reported as 141 % of control. The T/C (dose: 600.0 mg/kg/injection, schedule: Q01DX001 (ip), vehicle: saline with Tween-80, evaluated on day 20) was 148 % of control and the T/C (dose: 600.0 mg/kg/injection, schedule: Q01DX001 (ip), vehicle: saline with Tween-80, evaluated on day 30) was 148 % of control.
`N#CC(C#N)c1c(F)c(F)c(C(F)(F)F)c(F)c1F` was tested, and the survivor count (dose: 80.0 mg/kg/injection, schedule: Q01DX001 (ip), vehicle: Klucel (hydroxypropylcellulose) (HPC)) was 0 of 6.
In the case of `CN=C(NC)N(C)/N=C/C(C)=N/N(C)C(=NC)NC`, the survivor count (dose: 120.0 mg/kg/injection, schedule: Q01DX Z (ip), vehicle: methylcellulose (MC)) is reported as 4 of 6 and the survivor count (dose: 960.0 mg/kg/injection, schedule: Q01DX Z (oral), vehicle: methylcellulose (MC)) is reported as 3 of 6.
For `Cc1nc(N)[nH]c(=O)c1CCCC#N`, the T/C (dose: 100.0 mg/kg/injection, schedule: Q01DX009 (ip), vehicle: Klucel (hydroxypropylcellulose) (HPC)) was 98, 103, 110, 111 % of control, the T/C [2] was 89 [5 of 6 alive], 90, 99 % of control (2×) and the T/C [3] was 87 [2 of 3 alive], 95 [2 of 3 alive], 125 % of control [4 of 6 alive]. The survivor count [3] was 4 of 6 and the survivor count [5] was 5 of 6.
For `Cn1c2ccccc2c2cc[n+]3c(c21)CCCC3`, the survivor count (dose: 80.0 mg/kg/injection, schedule: Q01DX001 (ip), vehicle: saline) was 1 of 6.
`CC(=O)Oc1ccc2c(C)cc(=O)oc2c1` was tested, and the survivor count [1] was 2 of 4.
For `CCCCCCCNC(C)=O`, the survivor count [10] was 2 of 6, the survivor count [11] was 0 of 6 and the survivor count [12] was 0 of 6.
`O=C(CI)Nc1cc(C(F)(F)F)ccc1Cl` was tested, and the survivor count (dose: 100.0 mg/kg/injection, schedule: Q04DX003 (ip), vehicle: Klucel (hydroxypropylcellulose) (HPC)) was 2 of 6.
`Cc1cccc(Cl)c1NC(=O)c1cc([N+](=O)[O-])cc([N+](=O)[O-])c1` was tested, and the survivor count [3] was 6 of 6.
`NNC(=O)NO` was tested, and the T/C (dose: 22.0 mg/kg/injection, schedule: Q01DX009 (ip), vehicle: saline) was 129 % of control, the T/C (dose: 75.0 mg/kg/injection, schedule: Q01DX009 (ip), vehicle: saline) was 130 % of control and the survivor count [10] was 3 of 6. The survivor count (dose: 200.0 mg/kg/injection, schedule: Q01DX009 (ip), vehicle: saline) was 0 of 6 and the survivor count [6] was 0 of 6.
With `O=[N+]([O-])c1ccc2c(c1)OCCOCCOCCOCCO2` the survivor count (dose: 400.0 mg/kg/injection, schedule: Q04DX002 (ip), vehicle: Klucel (hydroxypropylcellulose) (HPC)) was 1 of 3.
`O=C1/C(=C\c2ccc([N+](=O)[O-])cc2)CS(=O)(=O)C/C1=C/c1ccc([N+](=O)[O-])cc1` was tested, and the survivor count [1] was 2 of 6.
For `O=C(C=C(C(F)(F)F)C(F)(F)F)c1cccc(Cl)c1`, the survivor count (dose: 50.0 mg/kg/injection, schedule: Q01DX009 (ip), vehicle: saline) was 6 of 6, the survivor count (dose: 50.0 mg/kg/injection, schedule: Q04DX003 (ip), vehicle: saline with Tween-80) was 6 of 6 and the survivor count [7] was 3 of 6. For the same compound, the survivor count [8] was 3 of 6 and the survivor count [9] was 0 of 6.
For `CC(=O)Nc1c(C)cccc1[N+](=O)[O-]`, the survivor count [11] was 1 of 3 and the survivor count [12] was 0 of 3.
For `c1ccc2c3nc4ccccc4c-3scc2c1`, the survivor count [4] was 0 of 6.
With `Nc1ccc2ccccc2c1-c1c(N)ccc2ccccc12` the survivor count (dose: 150.0 mg/kg/injection, schedule: Q04DX002 (ip), vehicle: saline with Tween-80) was 3 of 3.
`Cc1c(C)c(NC(=O)N(CCCl)N=O)c(C)c(C)c1NC(=O)N(CCCl)N=O` was tested, and the T/C (dose: 8.0 mg/kg/injection, schedule: Q01DX001 (ip), vehicle: other) was 127 % of control, the T/C (dose: 16.0 mg/kg/injection, schedule: Q01DX001 (ip), vehicle: other) was 127 % of control and the T/C (dose: 31.0 mg/kg/injection, schedule: Q01DX001 (ip), vehicle: other) was 133 and 139 % of control. The T/C (dose: 62.0 mg/kg/injection, schedule: Q01DX001 (ip), vehicle: other) was 140 % of control and the survivor count (dose: 1000.0 mg/kg/injection, schedule: Q01DX001 (ip), vehicle: other) was 3 of 10.
`CC1=CC(=O)C(C)(C)C=C1` was tested, and the survivor count [9] was 2 of 6.
